# At least one structure is not confirmed: it was looked up by name or label, or the drawing left a doubt.
# System: Tet-CN279 mutant mice
# Experiment: Spatial version of the Barnes maze, Tet-CN279 mice on or off doxycycline
# Type: in vivo, mouse
# Conditions: doxycycline 1 mg/ml in drinking water
smiles,measurement,value
C[C@H]1c2cccc(O)c2C(=O)C2=C(O)[C@]3(O)C(=O)C(C(N)=O)=C(O)[C@@H](N(C)C)[C@@H]3[C@@H](O)[C@@H]21 [doxycycline],Spatial memory defect (use of spatial search strategy) when transgene repressed,this defect was reversed
